Data on one substance can be found in article PMC9997659, “TLN1 contains a cancer-associated cassette exon that alters talin-1 mechanosensitivity” (The Journal of Cell Biology, 2023).

Amino acid sequences for entries named in this document (tags omitted). Residues count along the entry.
UniProt Q9Y490, residues 482-786: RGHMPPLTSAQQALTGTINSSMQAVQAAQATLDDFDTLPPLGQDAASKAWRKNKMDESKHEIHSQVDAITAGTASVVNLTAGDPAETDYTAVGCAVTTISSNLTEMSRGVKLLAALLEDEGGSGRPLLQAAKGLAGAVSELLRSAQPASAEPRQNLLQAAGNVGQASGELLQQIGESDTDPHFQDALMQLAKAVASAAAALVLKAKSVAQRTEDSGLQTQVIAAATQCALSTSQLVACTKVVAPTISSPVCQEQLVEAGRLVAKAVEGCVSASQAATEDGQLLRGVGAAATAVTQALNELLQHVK

These are yes or no findings as the source states them, for the method shown.

This experiment has as its target T1, Human talin-1 R1R2-WT (residues 482-786) (human, UniProt Q9Y490 482-786).
T1 construct: talin-1 (TLN1), human, rod domains R1 and R2, residues 482-786 of the 2,541 amino acid protein; codon optimized synthetic gene in pET151; also called wild-type R1R2; talin R1R2-WT; source: E. coli BL21(DE3)*, purified (Nickel-NTA, TEV cleavage, HiTrap Q)
The experiment can be described thus: SEC; Superdex-200 gel filtration of talin R1R2-WT or R1R2-17b alone; molecular weight calculated from the elution peak; both purified.

For the substance “Human talin-1 R1R2-WT (residues 482-786) (from UniProt Q9Y490 482-786) (domain or fragment)”, the binding result is listed as “no binding”.
